# Data from EP0365818A1, “Immunological detection of atrazine and atrazine derivatives” (CIBA-GEIGY AG, priority 1988, dated 1990).
# System: MAb 4009-85-3 (ECACC 8808/2503)
# Experiment: recovery of hydroxyatrazine from spiked soil extracts by competitive ELISA
# Parameters: species or system Maus
# Settings: extract diluted 1:40
structure (smiles),measurement,setting,value
"CCNc1nc(O)nc(NC(C)C)n1 [OH-Atrazin, Hydroxyatrazin]",Hydroxyatrazin Rückgewinnungsrate (%),"soil Collombey (Schweiz), 1,4 % Humus, pH 7,4, 100 ppb added",107%
same,Hydroxyatrazin Rückgewinnungsrate (%),"soil Les Evouettes (Schweiz), 2,6 % Humus, pH 6,2, 100 ppb added",94%
same,Hydroxyatrazin Rückgewinnungsrate (%),"soil Risilon (Israel), 1,8 % Humus, pH 7,8, 20 ppb added",91%
same,Hydroxyatrazin Rückgewinnungsrate (%),"soil Risilon (Israel), 60 ppb added",92%
same,Hydroxyatrazin Rückgewinnungsrate (%),"soil Risilon (Israel), 200 ppb added",90%
same,Hydroxyatrazin Rückgewinnungsrate (%),"soil Risilon (Israel), 600 ppb added",93%
same,Hydroxyatrazin Rückgewinnungsrate (%),"soil Stein (Schweiz), 5 % Humus, pH 7,1, 100 ppb added",110%
same,Hydroxyatrazin Rückgewinnungsrate (%),"soil Vetroz (Schweiz), 9,3 % Humus, pH 7,3, 100 ppb added",97%
